Some results were stated once for a whole list of compounds, not compound by compound.
Experiment: Metabolic stability in human liver microsomes
Format: in vitro ADME
Settings: calculated from liver microsome clearance
Description: Determination of Metabolic Stability in Human and Rat Liver Microsomes
Isolated human liver microsomes (HLM) were used to assess the metabolic stability of compounds of general formula I.
The incubations were conducted with 2.4 ml of HLM solution (protein content 0.5 mg/ml), 30 μl of the test compound (final concentration 1 μM) and 0.6 ml of the cofactor mixture (=NADPH-generating system composed of 3 IU glucose-6-phosphate dehydrogenase, 14.6 mg glucose-6-phosphate, 1.2 mg NADP) at 37° C. in 100 mM phosphate buffer at pH 7.4. Samples were taken at 6 time points (2-60 min) and precipitated with an equal volume of methanol, and the recovery of the test substances used in the supernatant was determined by LC-MS/MS analysis. The half-life of substance degradation determined therefrom was used to calculate what is called the intrinsic clearance of the substance in the liver microsome preparation. […] In addition, under the assumptions that (i) absorption of the test substance is 100%, and (ii) the first pass is completely reflected by liver microsome metabolism, a maximum oral bioavailability (Fmax) was calculated.

Row | Structure (SMILES) | Predicted Fmax (maximum oral bioavailability)
1 | CC1(c2ccc([C@H]3C[C@@]4(C)[C@@H](CC[C@@]4(O)C(F)(F)C(F)(F)F)[C@@H]4CCC5=CC(=O)CCC5=C43)cc2)CC1 [Example 4, (8S,11R,13S,14S,17S)-17-hydroxy-13-methyl-11-[4-(1-methylcyclopropyl)phenyl]-17-pentafluoroethyl-1,2,6,7,8,11,12,13,14,15,16,17-dodecahydrocyclopenta[a]phenanthren-3-one] | < 50%
2 | CC(C)(O)c1ccc([C@H]2C[C@@]3(C)[C@@H](CC[C@@]3(O)C(F)(F)C(F)(F)F)[C@@H]3CCC4=CC(=O)CCC4=C32)cc1 [Example 5, (8S,11R,13S,14S,17S)-17-hydroxy-11-[4-(1-hydroxy-1-methylethyl)phenyl]-13-methyl-17-pentafluoroethyl-1,2,6,7,8,11,12,13,14,15,16,17-dodecahydrocyclopenta[a]phenanthren-3-one] | < 50%
